Data reported in publication PMC10154249, “Unique progerin C-terminal peptide ameliorates Hutchinson–Gilford progeria syndrome phenotype by rescuing BUBR1” (Nature Aging, 2023).
Results are given in words; binding and its absence hold for the method and conditions named. In cells and extracts the contact can be indirect. Here binding means that the protein was enriched with, or labelled near, the bait; the list need not be complete.

Chains of the proteins cited; added tags and fusions are not shown. Lines headed by an entry give the natural chain unless they say otherwise; changes in a name come on top. A line that says so, or that is headed by a name, gives the form on record, which may keep a tag or linker.
Flag-progerin (HEK-293T) (P02545, form named): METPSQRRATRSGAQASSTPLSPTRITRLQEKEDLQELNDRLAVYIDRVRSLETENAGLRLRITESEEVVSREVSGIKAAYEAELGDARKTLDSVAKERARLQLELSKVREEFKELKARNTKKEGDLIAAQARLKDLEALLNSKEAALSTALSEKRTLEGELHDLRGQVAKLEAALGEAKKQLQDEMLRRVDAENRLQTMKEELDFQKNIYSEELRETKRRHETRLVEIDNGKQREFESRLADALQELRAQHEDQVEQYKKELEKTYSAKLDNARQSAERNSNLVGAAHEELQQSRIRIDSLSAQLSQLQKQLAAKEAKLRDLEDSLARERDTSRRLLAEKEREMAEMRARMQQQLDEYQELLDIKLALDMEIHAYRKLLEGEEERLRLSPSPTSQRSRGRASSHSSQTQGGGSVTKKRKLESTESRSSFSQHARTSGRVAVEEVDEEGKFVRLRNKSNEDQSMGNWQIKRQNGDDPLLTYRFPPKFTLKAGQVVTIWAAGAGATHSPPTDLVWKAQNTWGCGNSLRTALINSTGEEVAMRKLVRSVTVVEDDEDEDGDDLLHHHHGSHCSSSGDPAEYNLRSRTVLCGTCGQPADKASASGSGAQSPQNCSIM

Molecular target: Flag-progerin (HEK-293T) (human) (UniProt P02545)
Assay: affinity purification with mass spectrometry; Flag-tagged progerin transfected into HEK-293T cells, captured on anti-Flag affinity gel 16 h at 4 °C, washed with 50 mM Tris-HCl pH 7.4, 150 mM NaCl; SDS–PAGE, LC–MS/MS

B1: lamin B2 (protein, UniProt Q03252 1-620)
chain: MSPPSPGRRREQRRPRAAATMATPLPGRAGGPATPLSPTRLSRLQEKEELRELNDRLAHYIDRVRALELENDRLLLKISEKEEVTTREVSGIKALYESELADARRVLDETARERARLQIEIGKLRAELDEVNKSAKKREGELTVAQGRVKDLESLFHRSEVELAAALSDKRGLESDVAELRAQLAKAEDGHAVAKKQLEKETLMRVDLENRCQSLQEELDFRKSVFEEEVRETRRRHERRLVEVDSSRQQEYDFKMAQALEELRSQHDEQVRLYKLELEQTYQAKLDSAKLSSDQNDKAASAAREELKEARMRLESLSYQLSGLQKQASAAEDRIRELEEAMAGERDKFRKMLDAKEQEMTEMRDVMQQQLAEYQELLDVKLALDMEINAYRKLLEGEEERLKLSPSPSSRVTVSRATSSSSGSLSATGRLGRSKRKRLEVEEPLGSGPSVLGTGTGGSGGFHLAQQASASGSVSIEEIDLEGKFVQLKNNSDKDQSLGNWRIKRQVLEGEEIAYKFTPKYILRAGQMVTVWAAGAGVAHSPPSTLVWKGQSSWGTGESFRTVLVNADGEEVAMRTVKKSSVMRENENGEEEEEEAEFGEEDLFHQQGDPRTTSRGCYVM
- binding: binds
